Test results taken from article doi:10.1101/2022.08.09.503213 (bioRxiv, 2022).
Results are given in words; binding and its absence hold for the method and conditions named. Some results given as binding are weak or reduced against the parent protein; the word gives no strength. Sequences can lack the tags named with a protein.

Amino acid sequences for entries named in this document (tags omitted).
UniProt Q96RY7, whole entry: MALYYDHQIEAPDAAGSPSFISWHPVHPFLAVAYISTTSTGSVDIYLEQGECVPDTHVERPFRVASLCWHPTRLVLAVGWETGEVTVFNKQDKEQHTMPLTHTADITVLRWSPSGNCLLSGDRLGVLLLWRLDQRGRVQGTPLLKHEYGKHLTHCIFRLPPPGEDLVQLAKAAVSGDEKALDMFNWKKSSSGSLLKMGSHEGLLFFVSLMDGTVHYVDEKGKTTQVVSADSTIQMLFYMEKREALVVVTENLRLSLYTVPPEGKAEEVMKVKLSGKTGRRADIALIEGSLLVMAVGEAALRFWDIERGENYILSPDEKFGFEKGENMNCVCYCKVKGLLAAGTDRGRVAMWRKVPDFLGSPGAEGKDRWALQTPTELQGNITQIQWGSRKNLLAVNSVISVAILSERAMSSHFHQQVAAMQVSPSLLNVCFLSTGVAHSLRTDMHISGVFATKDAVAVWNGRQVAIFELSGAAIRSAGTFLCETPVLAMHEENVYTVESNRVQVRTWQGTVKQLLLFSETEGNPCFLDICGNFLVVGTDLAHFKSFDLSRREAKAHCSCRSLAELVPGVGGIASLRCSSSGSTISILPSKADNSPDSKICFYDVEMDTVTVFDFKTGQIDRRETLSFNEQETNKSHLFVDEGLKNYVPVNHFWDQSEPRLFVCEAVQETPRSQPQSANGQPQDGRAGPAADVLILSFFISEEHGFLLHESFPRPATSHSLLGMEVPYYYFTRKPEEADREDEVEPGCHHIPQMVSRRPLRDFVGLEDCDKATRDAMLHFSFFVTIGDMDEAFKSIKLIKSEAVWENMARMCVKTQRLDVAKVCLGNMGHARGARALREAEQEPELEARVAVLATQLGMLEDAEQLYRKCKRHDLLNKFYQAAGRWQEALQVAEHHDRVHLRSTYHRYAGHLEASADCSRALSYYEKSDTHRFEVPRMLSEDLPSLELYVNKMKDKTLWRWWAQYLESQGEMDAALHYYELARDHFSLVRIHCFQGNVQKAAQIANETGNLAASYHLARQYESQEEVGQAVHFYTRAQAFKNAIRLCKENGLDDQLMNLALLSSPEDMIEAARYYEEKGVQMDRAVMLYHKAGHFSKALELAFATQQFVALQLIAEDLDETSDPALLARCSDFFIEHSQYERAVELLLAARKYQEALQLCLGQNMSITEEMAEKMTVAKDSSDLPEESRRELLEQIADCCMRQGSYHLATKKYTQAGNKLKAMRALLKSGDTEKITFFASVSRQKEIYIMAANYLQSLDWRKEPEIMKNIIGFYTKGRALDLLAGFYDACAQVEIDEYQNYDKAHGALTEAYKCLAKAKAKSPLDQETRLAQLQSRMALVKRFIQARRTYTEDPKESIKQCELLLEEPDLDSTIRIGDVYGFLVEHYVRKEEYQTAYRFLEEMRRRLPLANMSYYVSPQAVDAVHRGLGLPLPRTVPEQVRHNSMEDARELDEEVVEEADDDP

How the values were obtained:
Test in all cases: cryo-EM structure
[1] = biological target: IFT140 from ^ZZIFT140 (N-terminal ZZ-tag) (human) (UniProt Q96RY7)
[2] = biological target: IFT140 with C-terminal TEV site and Strep-tag II (IFT140^Strep) (human) (UniProt Q96RY7)
[3] = biological target: T1, IFT144 with C-terminal TEV site and FLAG tag (IFT144^FLAG) (human) (UniProt Q8NEZ3)
T1 sequence: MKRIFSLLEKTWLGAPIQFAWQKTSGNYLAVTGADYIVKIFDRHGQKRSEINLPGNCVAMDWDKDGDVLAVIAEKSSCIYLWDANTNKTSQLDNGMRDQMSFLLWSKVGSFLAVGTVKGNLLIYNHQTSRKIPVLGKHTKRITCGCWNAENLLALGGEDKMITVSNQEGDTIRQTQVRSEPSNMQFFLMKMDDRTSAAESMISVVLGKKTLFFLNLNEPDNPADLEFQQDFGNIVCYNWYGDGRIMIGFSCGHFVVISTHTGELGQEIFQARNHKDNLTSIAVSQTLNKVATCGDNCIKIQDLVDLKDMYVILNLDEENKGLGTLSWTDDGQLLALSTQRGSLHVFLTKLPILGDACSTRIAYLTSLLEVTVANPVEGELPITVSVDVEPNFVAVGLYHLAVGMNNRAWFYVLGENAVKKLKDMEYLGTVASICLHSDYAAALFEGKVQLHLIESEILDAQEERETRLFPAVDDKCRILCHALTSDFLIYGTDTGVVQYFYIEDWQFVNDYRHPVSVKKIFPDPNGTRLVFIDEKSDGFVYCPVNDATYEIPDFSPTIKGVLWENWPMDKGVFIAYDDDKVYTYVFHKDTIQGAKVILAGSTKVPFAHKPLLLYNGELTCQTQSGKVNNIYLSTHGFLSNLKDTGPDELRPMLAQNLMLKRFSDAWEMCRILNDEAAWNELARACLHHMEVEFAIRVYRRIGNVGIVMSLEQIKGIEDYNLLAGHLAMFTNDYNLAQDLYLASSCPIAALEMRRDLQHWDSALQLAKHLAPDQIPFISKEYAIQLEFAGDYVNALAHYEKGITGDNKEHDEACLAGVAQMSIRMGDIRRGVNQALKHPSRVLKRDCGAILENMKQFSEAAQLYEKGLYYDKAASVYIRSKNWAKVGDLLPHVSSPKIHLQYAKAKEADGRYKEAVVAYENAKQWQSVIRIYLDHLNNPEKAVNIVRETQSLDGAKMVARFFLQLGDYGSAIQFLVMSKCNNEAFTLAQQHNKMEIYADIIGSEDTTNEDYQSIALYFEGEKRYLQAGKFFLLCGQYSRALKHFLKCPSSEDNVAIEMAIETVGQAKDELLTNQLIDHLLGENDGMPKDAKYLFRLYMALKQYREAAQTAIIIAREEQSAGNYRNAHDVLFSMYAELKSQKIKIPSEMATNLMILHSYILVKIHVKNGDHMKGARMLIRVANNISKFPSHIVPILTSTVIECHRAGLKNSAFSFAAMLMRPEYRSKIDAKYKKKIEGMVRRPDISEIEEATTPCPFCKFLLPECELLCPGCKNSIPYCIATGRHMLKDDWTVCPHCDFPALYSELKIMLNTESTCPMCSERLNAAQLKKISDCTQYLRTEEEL

- binding [1]: binds
- binding [2]: binds
- binding [3]: binds
B1: IFT122 (untagged) (protein, UniProt Q9HBG6 1-1241)
chain: MRAVLTWRDKAEHCINDIAFKPDGTQLILAAGSRLLVYDTSDGTLLQPLKGHKDTVYCVAYAKDGKRFASGSADKSVIIWTSKLEGILKYTHNDAIQCVSYNPITHQLASCSSSDFGLWSPEQKSVSKHKSSSKIICCSWTNDGQYLALGMFNGIISIRNKNGEEKVKIERPGGSLSPIWSICWNPSSRWESFWMNRENEDAEDVIVNRYIQEIPSTLKSAVYSSQGSEAEEEEPEEEDDSPRDDNLEERNDILAVADWGQKVSFYQLSGKQIGKDRALNFDPCCISYFTKGEYILLGGSDKQVSLFTKDGVRLGTVGEQNSWVWTCQAKPDSNYVVVGCQDGTISFYQLIFSTVHGLYKDRYAYRDSMTDVIVQHLITEQKVRIKCKELVKKIAIYRNRLAIQLPEKILIYELYSEDLSDMHYRVKEKIIKKFECNLLVVCANHIILCQEKRLQCLSFSGVKEREWQMESLIRYIKVIGGPPGREGLLVGLKNGQILKIFVDNLFAIVLLKQATAVRCLDMSASRKKLAVVDENDTCLVYDIDTKELLFQEPNANSVAWNTQCEDMLCFSGGGYLNIKASTFPVHRQKLQGFVVGYNGSKIFCLHVFSISAVEVPQSAPMYQYLDRKLFKEAYQIACLGVTDTDWRELAMEALEGLDFETAKKAFIRVQDLRYLELISSIEERKKRGETNNDLFLADVFSYQGKFHEAAKLYKRSGHENLALEMYTDLCMFEYAKDFLGSGDPKETKMLITKQADWARNIKEPKAAVEMYISAGEHVKAIEICGDHGWVDMLIDIARKLDKAEREPLLLCATYLKKLDSPGYAAETYLKMGDLKSLVQLHVETQRWDEAFALGEKHPEFKDDIYMPYAQWLAENDRFEEAQKAFHKAGRQREAVQVLEQLTNNAVAESRFNDAAYYYWMLSMQCLDIAQDPAQKDTMLGKFYHFQRLAELYHGYHAIHRHTEDPFSVHRPETLFNISRFLLHSLPKDTPSGISKVKILFTLAKQSKALGAYRLARHAYDKLRGLYIPARFQKSIELGTLTIRAKPFHDSEELVPLCYRCSTNNPLLNNLGNVCINCRQPFIFSASSYDVLHLVEFYLEEGITDEEAISLIDLEVLRPKRDDRQLEIANNSSQILRLVETKDSIGDEDPFTAKLSFEQGGSEFVPVVVSRLVLRSMSRRDVLIKRWPPPLRWQYFRSLLPDASITMCPSCFQMFHSEDYELLVLQHGCCPYCRRCKDDPGP
